{
  "source": "patent US20220193240A1",
  "about": "“TRIGGERABLE HYDROGEL COMPOSITIONS AND RELATED METHODS” (Massachusetts Institute of Technology, priority 2016, published 2022)",
  "test": "Permeability measurement on Franz diffusion cell",
  "details": "1 mg mL−1 in PBS pH 7.4, 3 mm membrane",
  "note": "The name of at least one read-out is uncertain.",
  "data": [
    {"smiles": "CO[C@H]1/C=C/O[C@@]2(C)Oc3c(C)c(O)c4c(O)c(c(/C=N/N5CCN(C)CC5)c(O)c4c3C2=O)NC(=O)/C(C)=C\\C=C\\[C@H](C)[C@H](O)[C@@H](C)[C@@H](O)[C@@H](C)[C@H](OC(C)=O)[C@@H]1C", "note": "[rifampicin]", "values": [
      {"measurement": "permeability through the TTH", "result": 0.042, "unit": "mL h·cm−2"}
    ]}
  ]
}
